Measured values from the supplement of paper PMC12823440, “Inhibitors supercharge kinase turnover through native proteolytic circuits” (Nature, 2025).
Where a name gives a salt, the structure may show the parent alone. The list shows a part of the results. Hit calls seldom repeat between salt and free forms of one compound.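 Kinases were expressed as nanoluciferase fusions in K562 cells and luminescence was read every 4 h between 2 and 18 h as percent of control, DMSO set to 100% and a positive control to 0%. A time point counts as decreased when the signal drops significantly (2 sigma). The hit call is the authors' own, does not follow from the count of time points alone, and its rule is not shown.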

Chains of the proteins cited; added tags and fusions are not shown. Lines headed by an entry give the natural chain unless they say otherwise; changes in a name come on top.
UniProt P50613: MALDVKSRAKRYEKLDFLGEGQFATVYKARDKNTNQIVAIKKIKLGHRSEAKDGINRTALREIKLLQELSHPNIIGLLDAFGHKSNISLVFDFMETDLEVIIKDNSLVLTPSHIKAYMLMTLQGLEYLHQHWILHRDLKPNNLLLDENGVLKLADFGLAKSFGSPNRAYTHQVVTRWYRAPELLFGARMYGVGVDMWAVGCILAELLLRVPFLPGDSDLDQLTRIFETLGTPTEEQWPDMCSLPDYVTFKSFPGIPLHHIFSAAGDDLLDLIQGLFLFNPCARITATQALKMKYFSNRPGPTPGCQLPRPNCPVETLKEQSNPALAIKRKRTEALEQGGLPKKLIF
UniProt P50750, whole entry: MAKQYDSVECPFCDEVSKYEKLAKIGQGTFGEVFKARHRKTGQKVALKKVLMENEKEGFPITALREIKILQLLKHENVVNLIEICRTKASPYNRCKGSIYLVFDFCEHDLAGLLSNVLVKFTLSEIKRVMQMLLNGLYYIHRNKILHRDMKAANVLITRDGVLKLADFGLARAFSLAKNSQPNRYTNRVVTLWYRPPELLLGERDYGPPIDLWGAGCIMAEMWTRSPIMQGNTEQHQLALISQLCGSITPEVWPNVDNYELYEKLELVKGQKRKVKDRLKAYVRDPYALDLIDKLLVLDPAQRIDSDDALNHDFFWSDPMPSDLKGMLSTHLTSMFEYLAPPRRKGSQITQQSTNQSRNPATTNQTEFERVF
UniProt O96017, whole entry: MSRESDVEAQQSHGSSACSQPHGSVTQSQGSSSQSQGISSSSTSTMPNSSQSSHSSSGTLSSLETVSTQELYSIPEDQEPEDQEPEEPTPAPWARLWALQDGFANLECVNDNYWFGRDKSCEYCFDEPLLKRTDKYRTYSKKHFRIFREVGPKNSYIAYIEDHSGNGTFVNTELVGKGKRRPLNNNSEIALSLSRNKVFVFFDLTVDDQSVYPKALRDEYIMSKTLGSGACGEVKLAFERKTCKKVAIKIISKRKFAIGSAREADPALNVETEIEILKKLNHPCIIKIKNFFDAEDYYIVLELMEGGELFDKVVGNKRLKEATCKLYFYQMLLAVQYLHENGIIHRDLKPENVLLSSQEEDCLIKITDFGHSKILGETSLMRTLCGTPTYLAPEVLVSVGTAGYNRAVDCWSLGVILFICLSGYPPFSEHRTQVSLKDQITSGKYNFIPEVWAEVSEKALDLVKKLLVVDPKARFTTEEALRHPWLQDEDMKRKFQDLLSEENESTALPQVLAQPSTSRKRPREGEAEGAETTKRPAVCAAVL
UniProt P07333, whole entry: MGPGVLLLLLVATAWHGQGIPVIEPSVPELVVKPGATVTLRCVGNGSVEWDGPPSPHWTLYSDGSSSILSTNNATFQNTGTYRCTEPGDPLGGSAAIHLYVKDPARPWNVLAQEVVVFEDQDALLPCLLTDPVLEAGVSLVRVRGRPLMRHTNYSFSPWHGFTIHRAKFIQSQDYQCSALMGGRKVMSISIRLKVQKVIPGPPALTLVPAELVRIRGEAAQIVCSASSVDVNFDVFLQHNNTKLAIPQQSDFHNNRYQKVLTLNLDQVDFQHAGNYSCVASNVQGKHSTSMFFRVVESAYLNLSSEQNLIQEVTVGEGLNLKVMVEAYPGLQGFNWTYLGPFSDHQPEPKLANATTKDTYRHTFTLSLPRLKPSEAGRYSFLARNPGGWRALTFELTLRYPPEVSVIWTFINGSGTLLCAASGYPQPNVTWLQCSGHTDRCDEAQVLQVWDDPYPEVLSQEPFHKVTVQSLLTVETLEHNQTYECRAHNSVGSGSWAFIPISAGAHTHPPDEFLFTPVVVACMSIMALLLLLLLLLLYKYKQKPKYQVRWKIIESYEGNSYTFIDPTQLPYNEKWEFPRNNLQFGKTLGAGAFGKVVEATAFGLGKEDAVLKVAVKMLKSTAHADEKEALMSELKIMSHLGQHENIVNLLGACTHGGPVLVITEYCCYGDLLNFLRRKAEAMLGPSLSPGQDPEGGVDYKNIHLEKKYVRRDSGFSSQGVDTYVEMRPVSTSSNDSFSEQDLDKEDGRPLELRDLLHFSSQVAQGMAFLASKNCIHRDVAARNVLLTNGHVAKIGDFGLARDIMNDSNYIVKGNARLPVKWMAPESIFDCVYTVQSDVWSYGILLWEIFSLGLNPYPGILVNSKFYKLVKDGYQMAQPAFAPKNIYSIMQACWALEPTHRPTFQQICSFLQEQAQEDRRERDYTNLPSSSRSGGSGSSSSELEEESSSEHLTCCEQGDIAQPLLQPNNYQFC
UniProt P41240: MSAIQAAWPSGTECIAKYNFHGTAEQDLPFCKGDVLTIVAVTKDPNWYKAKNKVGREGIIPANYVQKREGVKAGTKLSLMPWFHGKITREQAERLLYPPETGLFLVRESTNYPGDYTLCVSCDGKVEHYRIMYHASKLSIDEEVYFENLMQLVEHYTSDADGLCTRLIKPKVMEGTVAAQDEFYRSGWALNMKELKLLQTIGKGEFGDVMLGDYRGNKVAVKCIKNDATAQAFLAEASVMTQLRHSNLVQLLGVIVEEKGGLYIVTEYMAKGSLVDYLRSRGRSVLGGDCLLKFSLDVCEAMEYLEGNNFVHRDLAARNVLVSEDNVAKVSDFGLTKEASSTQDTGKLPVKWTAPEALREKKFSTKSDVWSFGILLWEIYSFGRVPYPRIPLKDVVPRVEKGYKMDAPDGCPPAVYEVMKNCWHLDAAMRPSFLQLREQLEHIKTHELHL
UniProt P48729: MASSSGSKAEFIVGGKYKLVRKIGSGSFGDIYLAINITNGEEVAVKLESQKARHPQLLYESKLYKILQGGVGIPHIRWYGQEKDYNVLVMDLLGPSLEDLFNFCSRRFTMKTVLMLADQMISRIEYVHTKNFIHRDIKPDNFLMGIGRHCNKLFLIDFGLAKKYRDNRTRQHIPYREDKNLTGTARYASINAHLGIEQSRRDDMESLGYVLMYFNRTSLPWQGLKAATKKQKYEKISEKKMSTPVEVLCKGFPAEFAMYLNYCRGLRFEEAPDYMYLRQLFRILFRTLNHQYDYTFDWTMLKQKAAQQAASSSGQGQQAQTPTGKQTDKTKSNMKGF
UniProt P48730: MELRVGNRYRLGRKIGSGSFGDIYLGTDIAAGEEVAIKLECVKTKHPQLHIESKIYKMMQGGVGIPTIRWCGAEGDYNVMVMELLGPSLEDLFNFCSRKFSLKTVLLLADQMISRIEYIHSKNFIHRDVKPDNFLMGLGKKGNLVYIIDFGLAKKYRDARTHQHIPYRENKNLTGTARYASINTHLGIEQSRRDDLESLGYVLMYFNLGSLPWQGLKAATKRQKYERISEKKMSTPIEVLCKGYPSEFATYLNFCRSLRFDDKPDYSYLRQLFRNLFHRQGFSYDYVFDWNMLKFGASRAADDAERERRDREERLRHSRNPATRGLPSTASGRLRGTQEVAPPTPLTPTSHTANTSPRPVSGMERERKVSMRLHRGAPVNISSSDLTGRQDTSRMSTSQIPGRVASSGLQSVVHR
UniProt Q08345: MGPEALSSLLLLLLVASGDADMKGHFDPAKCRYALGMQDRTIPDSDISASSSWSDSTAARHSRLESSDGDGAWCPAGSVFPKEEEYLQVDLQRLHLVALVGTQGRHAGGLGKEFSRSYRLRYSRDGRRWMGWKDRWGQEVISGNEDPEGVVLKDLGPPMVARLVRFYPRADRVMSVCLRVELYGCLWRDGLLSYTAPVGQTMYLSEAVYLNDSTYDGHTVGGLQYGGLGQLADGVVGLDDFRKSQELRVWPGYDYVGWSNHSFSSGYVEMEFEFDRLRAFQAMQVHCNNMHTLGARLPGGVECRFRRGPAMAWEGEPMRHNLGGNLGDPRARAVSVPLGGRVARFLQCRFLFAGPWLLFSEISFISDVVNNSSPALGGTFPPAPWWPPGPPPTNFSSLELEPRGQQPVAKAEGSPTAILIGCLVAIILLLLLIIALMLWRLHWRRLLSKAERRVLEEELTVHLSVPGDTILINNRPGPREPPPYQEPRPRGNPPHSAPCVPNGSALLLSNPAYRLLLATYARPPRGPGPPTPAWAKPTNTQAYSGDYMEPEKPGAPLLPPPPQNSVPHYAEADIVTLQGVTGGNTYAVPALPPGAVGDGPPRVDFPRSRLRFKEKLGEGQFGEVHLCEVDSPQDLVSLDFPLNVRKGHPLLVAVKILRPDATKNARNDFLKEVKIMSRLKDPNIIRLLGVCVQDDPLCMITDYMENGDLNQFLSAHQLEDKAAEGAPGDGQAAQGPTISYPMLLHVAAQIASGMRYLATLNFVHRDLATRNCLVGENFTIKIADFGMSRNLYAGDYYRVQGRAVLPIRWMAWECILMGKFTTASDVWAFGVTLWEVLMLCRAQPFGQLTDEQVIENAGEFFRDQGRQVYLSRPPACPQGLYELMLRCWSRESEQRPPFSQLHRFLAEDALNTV
UniProt Q9Y463, whole entry, looked up: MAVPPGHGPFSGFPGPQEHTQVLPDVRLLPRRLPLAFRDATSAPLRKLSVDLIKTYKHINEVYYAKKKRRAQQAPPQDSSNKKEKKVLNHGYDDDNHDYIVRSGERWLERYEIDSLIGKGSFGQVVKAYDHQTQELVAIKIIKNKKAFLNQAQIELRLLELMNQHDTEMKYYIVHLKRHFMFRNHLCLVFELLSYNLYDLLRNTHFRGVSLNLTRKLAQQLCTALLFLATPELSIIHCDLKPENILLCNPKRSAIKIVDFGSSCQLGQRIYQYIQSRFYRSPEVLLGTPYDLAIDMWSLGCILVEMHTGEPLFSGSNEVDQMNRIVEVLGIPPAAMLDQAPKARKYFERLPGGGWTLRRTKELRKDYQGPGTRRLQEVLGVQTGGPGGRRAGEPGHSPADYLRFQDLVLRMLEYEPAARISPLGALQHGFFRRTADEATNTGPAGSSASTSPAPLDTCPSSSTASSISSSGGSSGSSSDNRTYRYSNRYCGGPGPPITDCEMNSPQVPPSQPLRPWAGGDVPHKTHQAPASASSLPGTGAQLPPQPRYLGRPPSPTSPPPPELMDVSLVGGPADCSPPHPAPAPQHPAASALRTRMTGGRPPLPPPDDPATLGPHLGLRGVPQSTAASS
UniProt Q92630: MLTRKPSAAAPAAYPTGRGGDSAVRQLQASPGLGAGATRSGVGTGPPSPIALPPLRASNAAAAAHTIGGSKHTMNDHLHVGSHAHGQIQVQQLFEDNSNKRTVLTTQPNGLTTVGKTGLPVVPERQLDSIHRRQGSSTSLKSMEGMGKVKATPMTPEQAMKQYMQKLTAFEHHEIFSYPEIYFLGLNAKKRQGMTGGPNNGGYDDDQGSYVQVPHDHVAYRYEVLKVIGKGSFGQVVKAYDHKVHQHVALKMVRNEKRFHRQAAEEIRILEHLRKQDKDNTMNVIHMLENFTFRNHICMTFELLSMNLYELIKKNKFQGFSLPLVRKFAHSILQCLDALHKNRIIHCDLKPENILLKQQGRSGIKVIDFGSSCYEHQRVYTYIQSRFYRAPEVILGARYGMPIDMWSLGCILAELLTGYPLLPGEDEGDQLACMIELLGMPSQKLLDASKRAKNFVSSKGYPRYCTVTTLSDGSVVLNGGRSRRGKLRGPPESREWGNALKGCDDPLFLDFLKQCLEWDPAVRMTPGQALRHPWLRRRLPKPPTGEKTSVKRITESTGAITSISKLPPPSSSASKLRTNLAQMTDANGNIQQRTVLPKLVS

Tests used:
Experiment in all cases: kinase-Nluc reporter destabilization hit call (1 = scored as downregulated) (binary); higher = compound decreases kinase abundance
Conditions in all cases: K562; 2-18 h
CDK7 = CDK7 (UniProt P50613)
CDK9 = CDK9 (UniProt P50750)
CHEK2 = CHEK2 (UniProt O96017)
CSF1R = CSF1R (UniProt P07333)
CSK = CSK (UniProt P41240)
CSNK1A1 = CSNK1A1 (UniProt P48729)
CSNK1D = CSNK1D (UniProt P48730)
DDR1 = DDR1 (UniProt Q08345)
DYRK1B = DYRK1B (UniProt Q9Y463)
DYRK2 = DYRK2 (UniProt Q92630)

Measured: kinase-Nluc reporter destabilization hit call

O=C1NC(=O)C(Cc2c[nH]c3c(Cl)cccc23)N1 (stereo not given) [Necroptosis-IN-1] (10 µM)
inactive: CDK7 = 0 | CDK9 = 0 | CHEK2 = 0 | CSF1R 0 | CSK 0 | CSNK1A1 = 0 | CSNK1D 0 | DDR1 = 0 | DYRK1B 0 | DYRK2 = 0

CC(=O)O[C@@H]1[C@@H](OC(C)=O)[C@@H](O)[C@H](Oc2c(-c3ccc(O)cc3)oc3cc(O)cc(O)c3c2=O)O[C@H]1C (10 µM)
inactive: CDK7 = 0 | CDK9 = 0 | CHEK2 = 0 | CSF1R 0 | CSK 0 | CSNK1A1 = 0 | CSNK1D 0 | DDR1 = 0 | DYRK1B 0 | DYRK2 = 0

COc1cc2c(cc1OC)[C@@H]1C(=O)c3ccc4c(c3O[C@@H]1CO2)C=CC(C)(C)O4 [Deguelin] (10 µM)
inactive: CDK7 = 0 | CDK9 = 0 | CHEK2 = 0 | CSF1R 0 | CSK 0 | CSNK1A1 = 0 | CSNK1D 0 | DDR1 = 0 | DYRK1B 0 | DYRK2 = 0

COc1cc2ncnc(Nc3cc(Br)c(O)c(Br)c3)c2cc1OC (2.5 µM)
inactive: CDK7 = 0 | CDK9 = 0 | CHEK2 = 0 | CSF1R 0 | CSK 0 | CSNK1A1 = 0 | CSNK1D 0 | DDR1 = 0 | DYRK1B 0 | DYRK2 = 0

CCCCC(=O)OCC(=O)[C@]1(O)Cc2c(O)c3c(c(O)c2[C@@H](O[C@H]2C[C@H](NC(=O)C(F)(F)F)[C@H](O)[C@H](C)O2)C1)C(=O)c1c(OC)cccc1C3=O [Valrubicin] (10 µM)
inactive: CDK7 = 0 | CDK9 = 0 | CHEK2 = 0 | CSF1R 0 | CSK 0 | CSNK1A1 = 0 | CSNK1D 0 | DDR1 = 0 | DYRK1B 0 | DYRK2 = 0

Fc1ccc(-c2nc3n(c2-c2ccncc2)CCS3)cc1 (10 µM)
inactive: CDK7 = 0 | CDK9 = 0 | CHEK2 = 0 | CSF1R 0 | CSK 0 | CSNK1A1 = 0 | CSNK1D 0 | DDR1 = 0 | DYRK1B 0 | DYRK2 = 0

CC(C)(CCCCCC(O)CCCCCC(C)(C)C(=O)O)C(=O)O [Bempedoic acid] (10 µM)
inactive: CDK7 = 0 | CDK9 = 0 | CHEK2 = 0 | CSF1R 0 | CSK 0 | CSNK1A1 = 0 | CSNK1D 0 | DDR1 = 0 | DYRK1B 0 | DYRK2 = 0

O=C(COc1ccc(Cl)cc1)NC1CCC(NC(=O)COc2ccc(Cl)cc2)CC1 (stereo not drawn) [ISRIB (trans-isomer)] (10 µM)
inactive: CDK7 = 0 | CDK9 = 0 | CHEK2 = 0 | CSF1R 0 | CSK 0 | CSNK1A1 = 0 | CSNK1D 0 | DDR1 = 0 | DYRK1B 0 | DYRK2 = 0

Cc1n[nH]c2ncc(C(=O)N3CCC[C@H]3c3ccc(Cl)cc3)cc12 (10 µM)
inactive: CDK7 = 0 | CDK9 = 0 | CHEK2 = 0 | CSF1R 0 | CSK 0 | CSNK1A1 = 0 | CSNK1D 0 | DDR1 = 0 | DYRK1B 0 | DYRK2 = 0

O=C1CCC(N2C(=O)c3cccc(OCCCCCOc4ccc(CC(=O)Nc5cc(C6CCC6)[nH]n5)cc4)c3C2=O)C(=O)N1 (stereo not given) [PROTAC CDK9 Degrader-1] (10 µM)
inactive: CDK7 = 0 | CDK9 = 0 | CHEK2 = 0 | CSF1R 0 | CSK 0 | CSNK1A1 = 0 | CSNK1D 0 | DDR1 = 0 | DYRK1B 0 | DYRK2 = 0

CC(ONC(=O)c1cc(C(F)(F)F)cc(C(F)(F)F)c1)C(=O)Nc1ccc(Cl)cc1 (stereo not given) (2.5 µM)
inactive: CHEK2 = 0 | CSF1R 0 | CSK 0 | CSNK1D 0 | DDR1 = 0 | DYRK1B 0 | DYRK2 = 0
active: CDK7 = 1 | CDK9 = 1 | CSNK1A1 = 1

C=CC(=O)Nc1cccc(Oc2nc(Nc3ccc(N4CCN(C)CC4)cc3OC)ncc2Cl)c1 (10 µM)
inactive: CDK7 = 0 | CDK9 = 0 | CHEK2 = 0 | CSF1R 0 | CSK 0 | CSNK1A1 = 0 | CSNK1D 0 | DDR1 = 0 | DYRK1B 0 | DYRK2 = 0

Reprinted at random: 2 records from the list, in no set order.
COc1cc2ncnc(Nc3cc(Br)c(O)c(Br)c3)c2cc1OC (2.5 µM)
inactive: CDK7 = 0 | CDK9 = 0 | CHEK2 = 0 | CSF1R 0 | CSK 0 | CSNK1A1 = 0 | CSNK1D 0 | DDR1 = 0 | DYRK1B 0 | DYRK2 = 0

CC(ONC(=O)c1cc(C(F)(F)F)cc(C(F)(F)F)c1)C(=O)Nc1ccc(Cl)cc1 (stereo not given) (2.5 µM)
inactive: CHEK2 = 0 | CSF1R 0 | CSK 0 | CSNK1D 0 | DDR1 = 0 | DYRK1B 0 | DYRK2 = 0
active: CDK7 = 1 | CDK9 = 1 | CSNK1A1 = 1

More entries:

COc1ccc(Br)c(C=O)c1O [6-Bromo-2-hydroxy-3-methoxybenzaldehyde] (10 µM)
inactive: CDK7 = 0 | CDK9 = 0 | CHEK2 = 0 | CSF1R 0 | CSK 0 | CSNK1A1 = 0 | CSNK1D 0 | DDR1 = 0 | DYRK1B 0 | DYRK2 = 0

Cc1ccc2c(NS(=O)(=O)c3ccccc3Cl)cccc2c1Oc1ncccc1-c1ccnc(N[C@H]2CCCNC2)n1 (2.5 µM)
inactive: CDK7 = 0 | CDK9 = 0 | CHEK2 = 0 | CSF1R 0 | CSK 0 | CSNK1A1 = 0 | CSNK1D 0 | DDR1 = 0 | DYRK1B 0 | DYRK2 = 0

NC(=O)c1sc2c([N+](=O)[O-])cc(C(F)(F)F)cc2[n+]1[O-] [Cyclapolin 9] (10 µM)
inactive: CDK7 = 0 | CDK9 = 0 | CHEK2 = 0 | CSF1R 0 | CSK 0 | CSNK1A1 = 0 | CSNK1D 0 | DDR1 = 0 | DYRK1B 0 | DYRK2 = 0

CS(=O)(=O)c1cccc(CNc2nc(Nc3ccc4c(c3)CCC(=O)N4)ncc2C(F)(F)F)c1 (10 µM)
inactive: CDK7 = 0 | CDK9 = 0 | CHEK2 = 0 | CSF1R 0 | CSK 0 | CSNK1A1 = 0 | CSNK1D 0 | DDR1 = 0 | DYRK1B 0 | DYRK2 = 0

COc1ccc2cc1Oc1ccc(cc1)C[C@H]1c3cc(c(OC)cc3CCN1C)Oc1c(O)c(OC)cc3c1[C@H](C2)N(C)CC3 [Fangchinoline] (2.5 µM)
inactive: CDK7 = 0 | CDK9 = 0 | CHEK2 = 0 | CSF1R 0 | CSK 0 | CSNK1A1 = 0 | CSNK1D 0 | DDR1 = 0 | DYRK1B 0 | DYRK2 = 0

O=C(O)c1c[nH]c2cc(Cl)c(-c3ccc(C4(O)CCC4)cc3)cc12 (10 µM)
inactive: CDK7 = 0 | CDK9 = 0 | CHEK2 = 0 | CSF1R 0 | CSK 0 | CSNK1A1 = 0 | CSNK1D 0 | DDR1 = 0 | DYRK1B 0 | DYRK2 = 0

CCC(F)(F)c1cc(N2CCC(S(C)(=O)=O)CC2)nc2sc(C(N)=O)c(N)c12 (10 µM)
inactive: CDK7 = 0 | CDK9 = 0 | CHEK2 = 0 | CSF1R 0 | CSK 0 | CSNK1A1 = 0 | CSNK1D 0 | DDR1 = 0 | DYRK1B 0 | DYRK2 = 0

C[C@@H]1COC(Nc2ccc3ncnc(Nc4ccc(OCc5nccs5)c(Cl)c4)c3c2)=N1 [Varlitinib] (10 µM)
inactive: CDK7 = 0 | CDK9 = 0 | CHEK2 = 0 | CSF1R 0 | CSK 0 | CSNK1A1 = 0 | CSNK1D 0 | DDR1 = 0 | DYRK1B 0 | DYRK2 = 0

CC(C)n1cnc2c(Nc3cccc(Cl)c3)nc(N[C@H]3CCCC[C@@H]3N)nc21 (2.5 µM)
inactive: CDK7 = 0 | CDK9 = 0 | CHEK2 = 0 | CSF1R 0 | CSK 0 | CSNK1A1 = 0 | CSNK1D 0 | DDR1 = 0 | DYRK1B 0 | DYRK2 = 0

Cc1ccc(Nc2cc(N[C@@H]3CCCC[C@@H]3N)nnc2C(N)=O)nc1C (2 µM)
inactive: CDK7 = 0 | CDK9 = 0 | CHEK2 = 0 | CSF1R 0 | CSK 0 | CSNK1A1 = 0 | CSNK1D 0 | DDR1 = 0 | DYRK1B 0 | DYRK2 = 0

COc1cc2nnc(C(N)=O)c(Nc3ccc(C)cc3F)c2cc1N1CCN(CCO)CC1 (2.5 µM)
inactive: CDK7 = 0 | CDK9 = 0 | CHEK2 = 0 | CSF1R 0 | CSK 0 | CSNK1A1 = 0 | CSNK1D 0 | DDR1 = 0 | DYRK1B 0 | DYRK2 = 0

CN1CCN(c2ccc(-n3cc(-c4ccncc4OCC4CCNCC4)cn3)cc2)CC1 [MELK-8a (hydrochloride)] (10 µM)
inactive: CDK7 = 0 | CDK9 = 0 | CHEK2 = 0 | CSF1R 0 | CSK 0 | CSNK1A1 = 0 | CSNK1D 0 | DDR1 = 0 | DYRK1B 0 | DYRK2 = 0

CCC[C@H](C)Oc1nc(N)c2[nH]c(=O)n(CCCCCN3CCCCC3)c2n1 (10 µM)
inactive: CDK7 = 0 | CDK9 = 0 | CHEK2 = 0 | CSF1R 0 | CSK 0 | CSNK1A1 = 0 | CSNK1D 0 | DDR1 = 0 | DYRK1B 0 | DYRK2 = 0

O=C(Nc1ccc(Cl)cc1)C1CN(C(=O)c2cccc(-c3ccco3)c2)CC(F)(F)C1 (stereo not given) (2.5 µM)
inactive: CDK7 = 0 | CDK9 = 0 | CHEK2 = 0 | CSF1R 0 | CSK 0 | CSNK1A1 = 0 | CSNK1D 0 | DDR1 = 0 | DYRK1B 0 | DYRK2 = 0

COc1cc2nccc(Nc3cccc(Oc4ccccc4)c3)c2cc1OC (2.5 µM)
inactive: CDK7 = 0 | CDK9 = 0 | CHEK2 = 0 | CSF1R 0 | CSK 0 | CSNK1A1 = 0 | CSNK1D 0 | DDR1 = 0 | DYRK1B 0 | DYRK2 = 0

O=C(O)/C=C(\CCc1ccc(Cl)cc1)c1ccccc1 (10 µM)
inactive: CDK7 = 0 | CDK9 = 0 | CHEK2 = 0 | CSF1R 0 | CSK 0 | CSNK1A1 = 0 | CSNK1D 0 | DDR1 = 0 | DYRK1B 0 | DYRK2 = 0

Cc1cnc(Cl)nc1-c1ccc(N(Cc2ccc(CNC(=O)C(F)F)cc2)C(=O)c2ccc(O)cc2O)cc1 (10 µM)
inactive: CDK7 = 0 | CDK9 = 0 | CHEK2 = 0 | CSF1R 0 | CSK 0 | CSNK1A1 = 0 | CSNK1D 0 | DDR1 = 0 | DYRK1B 0 | DYRK2 = 0
